Reference: PMC12890474
No constants are given. Whether binding was seen depends on the method and setting. Binding seen in cells or lysates may run through a third protein. Here binding means that the protein was enriched with, or labelled near, the bait; the list need not be complete. A no says only that the protein was not detected with the bait.

By UniProt entry, the sequences of proteins in these tests, tags left out. Residues count along the entry.
UniProt Q9Z351: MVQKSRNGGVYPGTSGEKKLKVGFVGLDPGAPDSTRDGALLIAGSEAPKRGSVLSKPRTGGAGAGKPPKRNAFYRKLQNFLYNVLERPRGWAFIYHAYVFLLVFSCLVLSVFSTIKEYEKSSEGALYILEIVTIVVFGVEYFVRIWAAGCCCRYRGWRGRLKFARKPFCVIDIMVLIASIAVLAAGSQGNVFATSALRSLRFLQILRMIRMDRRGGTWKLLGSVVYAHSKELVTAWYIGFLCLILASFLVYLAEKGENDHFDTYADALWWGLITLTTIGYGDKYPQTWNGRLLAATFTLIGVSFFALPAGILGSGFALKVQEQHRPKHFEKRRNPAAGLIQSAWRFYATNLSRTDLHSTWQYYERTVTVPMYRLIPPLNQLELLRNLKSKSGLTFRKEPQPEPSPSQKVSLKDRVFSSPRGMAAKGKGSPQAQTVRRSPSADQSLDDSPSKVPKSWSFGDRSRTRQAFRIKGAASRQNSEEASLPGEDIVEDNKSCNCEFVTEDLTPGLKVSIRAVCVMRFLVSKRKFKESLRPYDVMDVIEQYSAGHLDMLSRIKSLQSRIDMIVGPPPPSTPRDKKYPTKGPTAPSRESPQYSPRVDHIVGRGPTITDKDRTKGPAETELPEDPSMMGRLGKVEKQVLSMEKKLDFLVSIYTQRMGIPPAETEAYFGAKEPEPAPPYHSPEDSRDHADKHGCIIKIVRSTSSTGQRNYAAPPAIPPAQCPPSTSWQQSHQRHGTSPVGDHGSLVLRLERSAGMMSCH
UniProt A2AG50: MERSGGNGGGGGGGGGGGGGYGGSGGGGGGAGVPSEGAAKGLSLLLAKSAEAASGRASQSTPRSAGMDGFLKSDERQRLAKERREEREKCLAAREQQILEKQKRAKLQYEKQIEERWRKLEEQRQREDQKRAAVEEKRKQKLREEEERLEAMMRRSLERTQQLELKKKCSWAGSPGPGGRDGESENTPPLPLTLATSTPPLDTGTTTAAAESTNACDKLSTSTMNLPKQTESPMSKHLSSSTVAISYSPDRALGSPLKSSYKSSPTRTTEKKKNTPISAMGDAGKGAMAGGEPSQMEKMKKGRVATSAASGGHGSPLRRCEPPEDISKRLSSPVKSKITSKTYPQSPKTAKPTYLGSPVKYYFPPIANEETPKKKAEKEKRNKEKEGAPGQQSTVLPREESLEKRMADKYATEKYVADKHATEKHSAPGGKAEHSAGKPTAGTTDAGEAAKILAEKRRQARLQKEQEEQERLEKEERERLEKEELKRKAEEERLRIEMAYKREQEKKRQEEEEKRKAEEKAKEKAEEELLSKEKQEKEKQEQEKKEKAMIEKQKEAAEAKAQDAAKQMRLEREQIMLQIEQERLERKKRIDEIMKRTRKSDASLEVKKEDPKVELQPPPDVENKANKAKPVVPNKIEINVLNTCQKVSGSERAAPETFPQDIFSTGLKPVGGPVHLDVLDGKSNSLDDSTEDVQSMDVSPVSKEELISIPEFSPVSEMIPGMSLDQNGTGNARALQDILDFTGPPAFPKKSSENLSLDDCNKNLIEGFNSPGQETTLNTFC
UniProt Q8CJ19: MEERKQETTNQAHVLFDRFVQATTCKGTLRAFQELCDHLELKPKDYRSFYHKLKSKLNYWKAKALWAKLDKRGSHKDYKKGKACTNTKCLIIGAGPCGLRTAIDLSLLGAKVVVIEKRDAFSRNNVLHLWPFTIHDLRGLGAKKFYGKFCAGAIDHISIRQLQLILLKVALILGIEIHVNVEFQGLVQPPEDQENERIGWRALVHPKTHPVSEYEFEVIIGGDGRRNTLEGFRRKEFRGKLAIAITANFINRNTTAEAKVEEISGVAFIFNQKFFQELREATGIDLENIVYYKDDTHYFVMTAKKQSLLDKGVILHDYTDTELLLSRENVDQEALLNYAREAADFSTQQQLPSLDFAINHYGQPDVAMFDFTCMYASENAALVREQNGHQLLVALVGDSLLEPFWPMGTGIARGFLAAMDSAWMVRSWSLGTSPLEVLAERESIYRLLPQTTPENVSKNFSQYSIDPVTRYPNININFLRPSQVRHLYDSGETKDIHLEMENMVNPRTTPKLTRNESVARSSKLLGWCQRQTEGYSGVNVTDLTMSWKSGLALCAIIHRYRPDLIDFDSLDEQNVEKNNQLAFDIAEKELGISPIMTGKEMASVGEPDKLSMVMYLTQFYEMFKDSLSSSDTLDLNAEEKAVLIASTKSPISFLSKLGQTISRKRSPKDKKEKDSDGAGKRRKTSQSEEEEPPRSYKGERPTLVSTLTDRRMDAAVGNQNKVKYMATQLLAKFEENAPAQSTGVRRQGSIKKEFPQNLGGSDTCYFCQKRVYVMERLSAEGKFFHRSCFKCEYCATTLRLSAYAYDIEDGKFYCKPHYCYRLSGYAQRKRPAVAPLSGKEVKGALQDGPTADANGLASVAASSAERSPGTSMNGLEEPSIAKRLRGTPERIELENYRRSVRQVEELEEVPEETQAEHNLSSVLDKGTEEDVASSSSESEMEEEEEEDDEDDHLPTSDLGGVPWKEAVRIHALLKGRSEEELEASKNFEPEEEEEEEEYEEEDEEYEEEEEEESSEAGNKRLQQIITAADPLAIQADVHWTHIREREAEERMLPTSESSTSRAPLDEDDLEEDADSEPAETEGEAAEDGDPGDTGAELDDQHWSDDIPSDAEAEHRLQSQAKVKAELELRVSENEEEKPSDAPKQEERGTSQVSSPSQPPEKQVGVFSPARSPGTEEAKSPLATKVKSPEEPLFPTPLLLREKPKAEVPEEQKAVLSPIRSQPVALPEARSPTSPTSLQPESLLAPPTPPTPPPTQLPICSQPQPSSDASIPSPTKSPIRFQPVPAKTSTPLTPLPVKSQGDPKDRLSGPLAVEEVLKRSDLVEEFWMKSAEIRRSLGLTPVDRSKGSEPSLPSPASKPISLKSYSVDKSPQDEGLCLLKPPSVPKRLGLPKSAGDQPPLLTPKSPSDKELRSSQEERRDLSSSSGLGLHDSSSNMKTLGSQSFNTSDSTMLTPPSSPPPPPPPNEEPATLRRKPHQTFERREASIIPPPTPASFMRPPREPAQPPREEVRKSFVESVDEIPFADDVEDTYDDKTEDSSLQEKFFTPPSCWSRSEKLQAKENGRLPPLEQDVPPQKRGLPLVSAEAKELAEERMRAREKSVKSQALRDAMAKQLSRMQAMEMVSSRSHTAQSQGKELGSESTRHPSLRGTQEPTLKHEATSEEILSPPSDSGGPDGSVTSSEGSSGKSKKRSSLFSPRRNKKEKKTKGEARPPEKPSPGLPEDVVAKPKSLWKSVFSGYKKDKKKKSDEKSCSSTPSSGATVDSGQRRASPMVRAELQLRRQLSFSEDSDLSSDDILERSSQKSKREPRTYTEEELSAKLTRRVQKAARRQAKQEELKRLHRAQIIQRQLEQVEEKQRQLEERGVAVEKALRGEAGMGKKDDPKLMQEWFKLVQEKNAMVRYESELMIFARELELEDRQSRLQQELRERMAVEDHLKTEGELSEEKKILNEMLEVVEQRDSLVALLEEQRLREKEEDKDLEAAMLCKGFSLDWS
UniProt P97952, residues 19-218: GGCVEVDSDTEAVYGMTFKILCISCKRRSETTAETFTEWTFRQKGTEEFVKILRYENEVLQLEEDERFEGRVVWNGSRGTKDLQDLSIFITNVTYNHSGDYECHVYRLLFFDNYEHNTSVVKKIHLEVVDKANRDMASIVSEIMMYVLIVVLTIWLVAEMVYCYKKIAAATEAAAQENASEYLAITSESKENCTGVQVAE

T1: TurboID-FGF13S (human) (UniProt Q92913)
T1 sequence: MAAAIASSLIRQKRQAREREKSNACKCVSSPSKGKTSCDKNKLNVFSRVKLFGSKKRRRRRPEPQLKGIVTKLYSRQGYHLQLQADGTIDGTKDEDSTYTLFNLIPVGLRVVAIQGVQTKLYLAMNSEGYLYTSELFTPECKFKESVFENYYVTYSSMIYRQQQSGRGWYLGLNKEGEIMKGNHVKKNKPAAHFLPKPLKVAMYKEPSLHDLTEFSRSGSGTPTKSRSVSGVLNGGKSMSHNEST


biological target: T1, TurboID-FGF13S (human); assay: proximity labelling; in vivo TurboID: NtTA/TurboID-FGF13S double-transgenic mice injected with biotin daily for 3 days (control 10% DMSO); whole-brain lysate, biotinylated proteins captured on streptavidin magnetic beads, quantitative DIA mass spectrometry; enriched = P < 0.05 and log2(biotin/DMSO) > 1

| binding | Molecule |
| --- | --- |
| binds | KCNQ2 (from UniProt Q9Z351 1-759) |
| binds | MAP7D2 (from UniProt A2AG50 1-781) |
| binds | MICAL3 (from UniProt Q8CJ19 1-1993) |
| no binding | APOB (from UniProt E9Q414 28-4505) |
| no binding | Sodium channel regulatory subunit β1 (from UniProt P97952 19-218) |
| no binding | TEC kinase (enzyme, UniProt P24604 1-630) MNFNTILEEILIKRSQQKKKTSLLNYKERLCVLPKSVLSYYEGRAEKKYRKGVIDISKIKCVEIVKNDDGVIPCQNKFPFQVVHDANTLYIFAPSPQSRDRWVKKLKEEIKNNNNIMIKYHPKFWADGSYQCCRQTEKLAPGCEKYNLFESSIRKTLPPAPEIKKRRPPPPIPPEEENTEEIVVAMYDFQATEAHDLRLERGQEYIILEKNDLHWWRARDKYGSEGYIPSNYVTGKKSNNLDQYEWYCRNTNRSKAEQLLRTEDKEGGFMVRDSSQPGLYTVSLYTKFGGEGSSGFRHYHIKETATSPKKYYLAEKHAFGSIPEIIEYHKHNAAGLVTRLRYPVSTKGKNAPTTAGFSYDKWEINPSELTFMRELGSGLFGVVRLGKWRAQYKVAIKAIREGAMCEEDFIEEAKVMMKLTHPKLVQLYGVCTQQKPIYIVTEFMERGCLLNFLRQRQGHFSRDMLLSMCQDVCEGMEYLERNSFIHRDLAARNCLVNEAGVVKVSDFGMARYVLDDQYTSSSGAKFPVKWCPPEVFNYSRFSSKSDVWSFGVLMWEIFTEGRMPFEKNTNYEVVTMVTRGHRLHRPKLATKYLYEVMLRCWQERPEGRPSLEDLLRTIDELVECEETFGR |
| no binding | BTBD17 (protein, UniProt Q9DB72 29-478) AQRADVGGEAAGTAINHSHMLLQRLQDLLRQGNASDVILRVQAVGTDEVRAFHTHRLLLGLHSELFRELLSNQSEVMLRESRDCAAVFDKFIRYLYCGELTVLLAQAIPLHRLATKYRVASLQRGVADYMRAHLAGGVGPAVGWYHYAVSTGDEALRESCLQFLAWNLSAVAGSAEWGAVSPELLAQLLQRSDLVLQDELELFHALEAWLGRARPPPTVAERALRAIRYPMIPPAQLFQLQARSAALARHGPAVADLLLQAYQFHAASPLHYAKFFHVNGSAFLPRNYLAPAWGAPWVINNPARDDRSTSFQTQLGPSGHDAGRRITWNVLFSPRWLPVSLRPVYADAAGTALPAARPEDGRPRLVVTPASSGGDAAGVSFQKTVLVGARHQGRLLVRHAYSFHQSSEEAGDFLAHADLQRRNSEYLVENALHLHLIVKPVYHTLIRTPS |
| binds | KV2.2 (protein, UniProt A6H8H5 1-907) MAEKAPPGLNRKTSRSTLSLPPEPVDIIRSKTCSRRVKINVGGLNHEVLWRTLDRLPRTRLGKLRDCNTHESLLEVCDDYNLNENEYFFDRHPGAFTSILNFYRTGKLHMMEEMCALSFGQELDYWGIDEIYLESCCQARYHQKKEQMNEELRREAETMREREGEEFDNTCCPEKRKKLWDLLEKPNSSVAAKILAIVSILFIVLSTIALSLNTLPELQENDEFGQPSDNRKLAHVEAVCIAWFTMEYLLRFLSSPNKWKFFKGPLNVIDLLAILPYYVTIFLTESNKSVLQFQNVRRVVQIFRIMRILRILKLARHSTGLQSLGFTLRRSYNELGLLILFLAMGIMIFSSLVFFAEKDEDATKFTSIPASFWWATITMTTVGYGDIYPKTLLGKIVGGLCCIAGVLVIALPIPIIVNNFSEFYKEQKRQEKAIKRREALERAKRNGSIVSMNLKDAFARSMELIDVAVEKAGESANTKDSVDDNHLSPSRWKWARKALSETSSNKSYENKYQEVSQNDSHEHLNNTSSSSPQHLSAQKLEMLYNEITKTQPHSHPNPDCQEQPERPCVYEEEIEMEEVICPQEQLAVAQTEVIVDMKSTSSIDSFTSCATDFTETERSPLPPPSASHLQMKFPTDLPGTDEHQRARAPPFLTLSRDKGPAAREAAVDYAPIDITVNLDAGASHGPLQPDSASDSPKSSLKGSNPLKSRSLKVNFQENRASAPQTPPSTARPLPVTTADFPLTTPQHMSTILLEEALPQGQPPLLEADDSAHCQGPSKGFSPRFPKQKLFPFSSRERRSFTEIDTGEDEDFLDLQRSRPDKQADPSPNCLADKPGDARDSLREEGCVGSSSPQNTDHNCRQDIYQAVGEVKKDSSQEGYKMENHLFAPEIHSNPGDTGHCPTRETSM |
